The text below walks through data of the supplement of paper PMC10849652.

By UniProt entry, the sequences of proteins in these tests, tags left out. Where a name states a change or a piece, a line headed by the entry shows the natural chain unless it says otherwise.
UniProt Q9Y5P6: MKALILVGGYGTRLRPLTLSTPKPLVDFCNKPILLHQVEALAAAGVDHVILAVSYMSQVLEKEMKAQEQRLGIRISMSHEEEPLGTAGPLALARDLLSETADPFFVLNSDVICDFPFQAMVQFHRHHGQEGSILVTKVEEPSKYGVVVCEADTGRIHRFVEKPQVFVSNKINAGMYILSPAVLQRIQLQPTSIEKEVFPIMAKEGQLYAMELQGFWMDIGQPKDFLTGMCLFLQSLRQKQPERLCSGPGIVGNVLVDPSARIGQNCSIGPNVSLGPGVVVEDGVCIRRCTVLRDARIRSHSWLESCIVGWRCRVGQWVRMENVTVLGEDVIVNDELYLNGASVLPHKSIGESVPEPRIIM
UniProt P28799: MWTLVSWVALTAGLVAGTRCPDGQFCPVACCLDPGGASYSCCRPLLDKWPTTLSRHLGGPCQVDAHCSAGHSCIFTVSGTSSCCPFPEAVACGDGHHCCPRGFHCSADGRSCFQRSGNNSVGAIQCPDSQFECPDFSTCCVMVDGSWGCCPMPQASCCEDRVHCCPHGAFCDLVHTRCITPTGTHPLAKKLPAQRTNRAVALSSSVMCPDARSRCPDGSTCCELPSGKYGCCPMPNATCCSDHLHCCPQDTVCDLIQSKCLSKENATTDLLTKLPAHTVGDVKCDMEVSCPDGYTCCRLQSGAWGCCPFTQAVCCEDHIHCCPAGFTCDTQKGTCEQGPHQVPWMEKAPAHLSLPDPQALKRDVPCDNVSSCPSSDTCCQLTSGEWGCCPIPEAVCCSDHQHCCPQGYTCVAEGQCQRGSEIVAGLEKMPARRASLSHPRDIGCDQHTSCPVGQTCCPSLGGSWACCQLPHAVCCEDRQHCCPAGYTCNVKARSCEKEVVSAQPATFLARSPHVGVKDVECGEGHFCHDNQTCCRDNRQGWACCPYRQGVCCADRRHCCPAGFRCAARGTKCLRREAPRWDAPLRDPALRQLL
UniProt O75791: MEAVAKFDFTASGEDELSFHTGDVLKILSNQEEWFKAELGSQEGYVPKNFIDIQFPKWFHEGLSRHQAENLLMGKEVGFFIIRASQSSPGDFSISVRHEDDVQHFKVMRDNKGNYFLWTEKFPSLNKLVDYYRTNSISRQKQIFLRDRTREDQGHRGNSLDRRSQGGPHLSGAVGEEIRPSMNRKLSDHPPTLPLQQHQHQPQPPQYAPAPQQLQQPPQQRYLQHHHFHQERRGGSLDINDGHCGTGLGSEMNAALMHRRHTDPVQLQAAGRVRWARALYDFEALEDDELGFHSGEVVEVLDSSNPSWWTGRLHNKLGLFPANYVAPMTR
UniProt Q8N335: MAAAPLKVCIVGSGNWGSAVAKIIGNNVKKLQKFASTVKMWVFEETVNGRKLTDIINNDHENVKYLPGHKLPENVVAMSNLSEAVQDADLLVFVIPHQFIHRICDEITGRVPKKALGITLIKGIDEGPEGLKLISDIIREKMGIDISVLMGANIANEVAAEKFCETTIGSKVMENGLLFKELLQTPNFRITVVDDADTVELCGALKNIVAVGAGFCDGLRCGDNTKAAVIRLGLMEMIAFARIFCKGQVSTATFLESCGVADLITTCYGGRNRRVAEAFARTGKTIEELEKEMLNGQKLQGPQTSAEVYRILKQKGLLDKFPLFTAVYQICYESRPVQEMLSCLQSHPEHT
UniProt Q14344, whole entry, looked up: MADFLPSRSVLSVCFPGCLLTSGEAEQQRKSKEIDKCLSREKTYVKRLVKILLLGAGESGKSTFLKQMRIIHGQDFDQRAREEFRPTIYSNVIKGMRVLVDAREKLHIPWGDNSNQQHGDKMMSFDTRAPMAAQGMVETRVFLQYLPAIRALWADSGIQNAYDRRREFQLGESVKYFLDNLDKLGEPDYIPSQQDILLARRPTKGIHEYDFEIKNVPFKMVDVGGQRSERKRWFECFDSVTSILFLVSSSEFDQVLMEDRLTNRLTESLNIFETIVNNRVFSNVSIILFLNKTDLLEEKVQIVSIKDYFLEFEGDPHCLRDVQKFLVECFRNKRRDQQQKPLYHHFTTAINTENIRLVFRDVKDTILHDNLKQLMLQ
UniProt O95249: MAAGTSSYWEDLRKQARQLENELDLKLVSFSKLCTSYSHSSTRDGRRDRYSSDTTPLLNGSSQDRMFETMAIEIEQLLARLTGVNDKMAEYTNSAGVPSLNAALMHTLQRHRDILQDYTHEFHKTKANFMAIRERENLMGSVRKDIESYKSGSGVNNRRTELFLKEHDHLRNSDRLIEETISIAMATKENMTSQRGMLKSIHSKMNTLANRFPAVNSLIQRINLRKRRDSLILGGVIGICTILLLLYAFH
UniProt Q8IXQ4: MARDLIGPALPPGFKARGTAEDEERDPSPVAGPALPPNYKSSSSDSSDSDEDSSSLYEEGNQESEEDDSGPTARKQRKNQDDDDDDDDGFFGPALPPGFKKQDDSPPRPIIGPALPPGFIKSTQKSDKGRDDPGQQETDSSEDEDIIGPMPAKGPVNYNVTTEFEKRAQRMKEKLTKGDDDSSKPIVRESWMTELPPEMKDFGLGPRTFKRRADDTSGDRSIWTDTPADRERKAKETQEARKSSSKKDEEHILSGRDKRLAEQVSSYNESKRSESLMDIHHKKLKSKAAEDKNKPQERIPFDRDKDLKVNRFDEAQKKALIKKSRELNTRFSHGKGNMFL
UniProt Q7Z2K8: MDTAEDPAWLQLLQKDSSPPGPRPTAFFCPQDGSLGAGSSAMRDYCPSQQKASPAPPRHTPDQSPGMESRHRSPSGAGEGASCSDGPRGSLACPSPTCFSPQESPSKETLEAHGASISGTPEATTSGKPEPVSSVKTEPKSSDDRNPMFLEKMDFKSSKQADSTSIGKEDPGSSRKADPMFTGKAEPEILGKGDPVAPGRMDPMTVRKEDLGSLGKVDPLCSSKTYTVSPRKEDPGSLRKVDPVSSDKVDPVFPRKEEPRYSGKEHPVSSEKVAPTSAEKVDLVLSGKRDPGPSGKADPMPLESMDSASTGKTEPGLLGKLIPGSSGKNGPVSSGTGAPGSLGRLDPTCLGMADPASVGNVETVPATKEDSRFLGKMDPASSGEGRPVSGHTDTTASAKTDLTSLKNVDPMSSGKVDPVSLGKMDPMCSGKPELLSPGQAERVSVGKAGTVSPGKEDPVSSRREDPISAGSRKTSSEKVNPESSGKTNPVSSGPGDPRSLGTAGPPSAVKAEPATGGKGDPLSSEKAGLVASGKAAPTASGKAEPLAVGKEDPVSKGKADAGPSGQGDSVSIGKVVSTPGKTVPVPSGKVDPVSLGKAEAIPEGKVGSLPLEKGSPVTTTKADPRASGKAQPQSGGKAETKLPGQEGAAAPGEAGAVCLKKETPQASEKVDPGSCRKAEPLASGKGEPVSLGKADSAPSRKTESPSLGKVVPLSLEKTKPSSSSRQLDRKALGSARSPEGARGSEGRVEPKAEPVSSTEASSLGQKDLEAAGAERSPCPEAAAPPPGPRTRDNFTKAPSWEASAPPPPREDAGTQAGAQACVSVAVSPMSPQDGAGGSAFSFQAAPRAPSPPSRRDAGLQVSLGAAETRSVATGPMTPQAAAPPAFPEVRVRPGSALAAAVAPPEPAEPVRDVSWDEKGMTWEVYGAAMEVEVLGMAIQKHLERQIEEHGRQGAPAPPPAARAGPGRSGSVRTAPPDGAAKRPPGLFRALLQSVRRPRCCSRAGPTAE
UniProt Q8TDQ7: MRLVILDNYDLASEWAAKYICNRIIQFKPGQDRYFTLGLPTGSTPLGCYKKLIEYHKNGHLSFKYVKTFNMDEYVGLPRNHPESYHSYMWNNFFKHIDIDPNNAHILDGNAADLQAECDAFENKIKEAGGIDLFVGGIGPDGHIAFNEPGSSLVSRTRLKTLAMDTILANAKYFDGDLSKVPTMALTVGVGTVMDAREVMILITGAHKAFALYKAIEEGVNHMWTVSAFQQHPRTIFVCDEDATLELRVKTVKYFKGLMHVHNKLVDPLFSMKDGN
UniProt Q9P2T1: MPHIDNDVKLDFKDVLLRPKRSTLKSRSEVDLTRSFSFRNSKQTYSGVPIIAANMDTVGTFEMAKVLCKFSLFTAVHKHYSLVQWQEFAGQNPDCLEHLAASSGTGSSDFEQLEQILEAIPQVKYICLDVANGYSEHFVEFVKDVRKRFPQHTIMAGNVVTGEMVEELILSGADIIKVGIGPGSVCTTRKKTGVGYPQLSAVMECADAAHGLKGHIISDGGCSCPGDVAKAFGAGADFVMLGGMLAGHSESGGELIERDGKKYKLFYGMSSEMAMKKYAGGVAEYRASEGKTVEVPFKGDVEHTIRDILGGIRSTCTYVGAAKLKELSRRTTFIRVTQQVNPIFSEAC
UniProt O43292: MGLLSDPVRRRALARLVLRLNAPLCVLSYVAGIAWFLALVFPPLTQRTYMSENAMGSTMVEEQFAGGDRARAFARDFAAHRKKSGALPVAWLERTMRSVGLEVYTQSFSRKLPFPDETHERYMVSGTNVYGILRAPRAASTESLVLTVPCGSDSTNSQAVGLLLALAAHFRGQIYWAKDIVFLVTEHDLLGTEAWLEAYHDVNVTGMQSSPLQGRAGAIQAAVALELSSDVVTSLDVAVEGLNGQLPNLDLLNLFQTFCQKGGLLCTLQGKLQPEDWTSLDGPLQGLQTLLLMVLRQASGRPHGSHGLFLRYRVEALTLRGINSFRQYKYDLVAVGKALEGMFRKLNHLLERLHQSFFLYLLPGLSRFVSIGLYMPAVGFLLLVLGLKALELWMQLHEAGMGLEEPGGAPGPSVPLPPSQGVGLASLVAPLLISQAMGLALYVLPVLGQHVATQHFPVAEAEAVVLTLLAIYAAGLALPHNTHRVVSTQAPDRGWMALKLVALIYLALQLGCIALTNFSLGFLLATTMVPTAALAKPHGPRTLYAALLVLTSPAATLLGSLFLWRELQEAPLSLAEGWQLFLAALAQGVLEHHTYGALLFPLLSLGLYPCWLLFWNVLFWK
UniProt Q5VW38: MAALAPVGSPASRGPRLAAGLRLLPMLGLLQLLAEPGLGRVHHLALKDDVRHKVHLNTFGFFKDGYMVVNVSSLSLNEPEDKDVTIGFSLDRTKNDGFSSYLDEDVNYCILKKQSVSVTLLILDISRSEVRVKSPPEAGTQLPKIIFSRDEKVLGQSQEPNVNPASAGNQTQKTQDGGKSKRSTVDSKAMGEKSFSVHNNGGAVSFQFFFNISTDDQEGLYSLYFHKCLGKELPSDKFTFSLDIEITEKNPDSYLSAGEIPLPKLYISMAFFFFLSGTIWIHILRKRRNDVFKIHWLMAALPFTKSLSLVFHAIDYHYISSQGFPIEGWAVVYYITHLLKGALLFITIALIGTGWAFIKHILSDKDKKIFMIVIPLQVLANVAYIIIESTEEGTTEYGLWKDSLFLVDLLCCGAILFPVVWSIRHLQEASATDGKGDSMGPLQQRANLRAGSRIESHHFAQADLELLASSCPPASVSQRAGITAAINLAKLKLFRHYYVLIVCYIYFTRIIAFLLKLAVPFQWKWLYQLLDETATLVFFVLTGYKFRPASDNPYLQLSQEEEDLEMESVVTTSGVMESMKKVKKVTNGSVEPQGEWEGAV
UniProt O00461: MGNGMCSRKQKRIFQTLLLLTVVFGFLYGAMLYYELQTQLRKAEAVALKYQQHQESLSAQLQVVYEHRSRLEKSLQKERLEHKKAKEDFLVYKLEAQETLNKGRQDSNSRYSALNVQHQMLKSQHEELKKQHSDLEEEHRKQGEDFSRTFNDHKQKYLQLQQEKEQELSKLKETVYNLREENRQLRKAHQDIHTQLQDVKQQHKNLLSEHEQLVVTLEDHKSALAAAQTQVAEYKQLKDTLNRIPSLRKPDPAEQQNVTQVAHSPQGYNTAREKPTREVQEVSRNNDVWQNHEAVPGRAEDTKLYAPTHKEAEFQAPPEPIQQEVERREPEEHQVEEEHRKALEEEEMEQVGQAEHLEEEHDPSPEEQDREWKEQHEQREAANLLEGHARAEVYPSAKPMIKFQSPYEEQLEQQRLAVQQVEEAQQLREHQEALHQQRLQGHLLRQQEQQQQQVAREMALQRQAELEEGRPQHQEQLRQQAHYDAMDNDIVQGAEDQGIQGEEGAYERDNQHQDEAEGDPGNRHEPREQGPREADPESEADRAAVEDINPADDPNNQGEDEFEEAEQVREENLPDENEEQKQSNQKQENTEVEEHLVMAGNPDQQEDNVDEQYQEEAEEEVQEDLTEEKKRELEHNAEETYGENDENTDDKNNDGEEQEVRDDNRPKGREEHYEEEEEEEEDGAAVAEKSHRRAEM
UniProt Q9HCN4, whole entry, looked up: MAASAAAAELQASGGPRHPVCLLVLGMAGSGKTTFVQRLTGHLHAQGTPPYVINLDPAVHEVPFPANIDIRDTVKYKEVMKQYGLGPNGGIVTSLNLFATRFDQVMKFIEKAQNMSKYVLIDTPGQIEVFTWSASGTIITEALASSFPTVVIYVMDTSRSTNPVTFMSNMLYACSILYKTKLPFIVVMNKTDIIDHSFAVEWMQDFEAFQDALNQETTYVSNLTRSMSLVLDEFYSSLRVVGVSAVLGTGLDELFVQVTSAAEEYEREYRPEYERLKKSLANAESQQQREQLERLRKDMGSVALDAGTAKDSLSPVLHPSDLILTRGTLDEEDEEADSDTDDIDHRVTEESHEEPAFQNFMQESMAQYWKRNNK

This is one part of the list.

Compound in this experiment: Cc1cc(SCc2sc(-c3ccc(C(F)(F)F)cc3)nc2C)ccc1OCC(=O)O
The experiment is described as follows: log2 fold change, soluble protein after heating vs DMSO (PISA); higher = thermal stabilisation; K562 cells, 10 uM, 30 min; active = over 0.2 and 3.5 SD of the protein, either way, in both replicates (recomputed). An outline of the steps: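 Soluble protein was defined as the supernatant after 21,000xg for 90 min. It came from K562 cells at 2×10^6 cells/mL given 10 μM compound for 30 min, heated in aliquots for 3 min across 48°C-58°C, pooled, and extracted in PBS with 0.5% NP-40 at 4°C, and was quantified by TMTpro 16plex LC-MS/MS with equalised channel sums. Thermal stability against control samples, from duplicates, is reported as log2 fold change.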
GMPPB isoform 2 (UniProt Q9Y5P6): the log2 fold change was inactive: 0.007.
Under GK (UniProt P32189) stands inactive: 0.012; under GRN (UniProt P28799), inactive: -0.077; under GRB2 (UniProt P62993), inactive: -0.031.
Under GINS4 (UniProt Q9BRT9) stands inactive: 0.106; under GRAP2 (UniProt O75791), inactive: 0.172.
In the case of GPD1L (UniProt Q8N335) it was inactive: -0.01; in that of GNA13 (UniProt Q14344), inactive: -0.006; in that of GOSR1 (UniProt O95249), inactive: 0.08.
Take GPATCH8 (UniProt Q9UKJ3): the log2 fold change was inactive: -0.063.
In the case of GPALPP1 (UniProt Q8IXQ4) it was inactive: -0.058; in that of GPD2 (UniProt P43304), inactive: -0.03; in that of GPRIN1 (UniProt Q7Z2K8), inactive: -0.12.
In the case of GPN3 isoform 2 (UniProt Q9UHW5) it was inactive: -0.005; in that of GNPDA2 (UniProt Q8TDQ7), inactive: 0.003.
In the case of GMPR2 isoform 2 (UniProt Q9P2T1) it was inactive: -0.053.
For the target GNE isoform 2 (UniProt Q9Y223), the log2 fold change was inactive: 0.008.
In the case of GPAA1 (UniProt O43292) it was inactive: 0.019; in that of GPR107 (UniProt Q5VW38), inactive: -0.027.
For GORASP2 isoform 3 (UniProt Q9H8Y8), the log2 fold change was inactive: 0.134.
Under GOLIM4 (UniProt O00461) stands inactive: -0.033.
As to GPN1 isoform 5 (UniProt Q9HCN4), the log2 fold change was inactive: 0.04.
